Results on 58 compounds are retold here after PubChem BioAssay AID2685 (National Center for Advancing Translational Sciences (NCATS), 2010).

The list shows a part of the results. Further columns of the screen follow, without active or inactive calls. Most of these compounds were active or inconclusive in the main read-out, so they are no random draw. The note in brackets gives the kind of curve behind each potency; many fits are weak.

The assay in a line: qHTS Assay for Lipid Storage Modulators in Drosophila S3 Cells.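 As to cell number change: cells counted by Cell Tracker Red CMTPX staining in the red channel.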 Conditions: BODIPY lipid droplet fluorescence, 18-24 h; for cell number change: measured here: cell count max response, cells fed with added oleic acid. A digest of the protocol: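 Drosophila S3 cells got compounds at several concentrations plus oleic acid (400 uM solution). Laser-scanning cytometry with 488 nm excitation read lipid droplets at 500-530 nm and cells at 575-640 nm. Percent activity was relative to 20 uM Triacsin C.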

The mark [1] stands for this setting: measured here: lipid fluorescence (Fed channel) AC50, cells fed with added oleic acid.
Where [2] appears, read: measured here: cell number channel AC50, cells fed with added oleic acid.

One may read the AC50 as the concentration giving half of the maximal activity seen. For `CC1CCN(c2ccc3nnc(CCC(=O)NC(C)C)n3n2)CC1`, the AC50 under setting [1] was 0.00517 µM [rising, full curve, poor fit].
As for `COC(=O)/C(=C\Nc1cccc(Cl)c1C)c1ncc(C(F)(F)F)cc1Cl`, the AC50 under setting [1] is 0.411 µM [rising, single point].
On to `C/C=C/C(=O)OCC(=O)Nc1ccccc1Br`, for which the cell number change came to 36.1%.
As to `COc1cccc(N2CCN(c3nc(C)c(C)c(=O)[nH]3)CC2)c1`, the cell number change was -5.77%. Moreover, under setting [1], the AC50 was 6.51 µM [falling, single point].
Take `COC(=O)c1cc(NC(=O)c2ccc([N+](=O)[O-])cc2)c(=O)oc1C`: the cell number change is -23%. Further, under setting [1], the AC50 was 6.51 µM [falling, single point].
With `CCOC(=O)COc1ccc2c(C#N)c3ccccn3c2c1`, the cell number change was determined as 53.1%. Under setting [2], the AC50 is 23.1 µM [rising, partial curve, poor fit]. Besides, under setting [1], the AC50 is 23.1 µM [rising, partial curve, poor fit].
For `COc1ccccc1-c1cc(C(F)(F)F)c(C#N)c(=O)[nH]1`, the cell number change was -52.6%.
Take `CC1CCN(C2=C(NS(=O)(=O)c3ccc(Br)cc3)C(=O)c3ccccc3C2=O)CC1`: the cell number change was -7.46%. The AC50 under setting [1] is 0.517 µM [falling, partial curve, poor fit].
Take `O=C(Nc1ccccc1)Nc1ccc(Oc2ncnc3cc(Cl)ccc23)nc1`: the cell number change was 5.81%.
Take `O=C1C(Cl)=C(NCC2CCCO2)C(=O)N1c1ccccc1` (configuration not stated): the cell number change was -26.2%. Further, the AC50 under setting [1] is 29.1 µM [falling, single point].
As for `Cc1nn(-c2ccccn2)c2c1-c1nc(N)ncc1CC2`, the cell number change was 6.15%.
Consider `COc1ccc(C=Nc2ccc3[nH]ncc3c2)c(O)c1`, for which the cell number change is -20.7%. For the same compound, under setting [1], the AC50 was 29.1 µM [falling, single point].
With `CCOc1cc(-c2noc(CCCC(N)=O)n2)cc(Br)c1OC`, the cell number change was -1.1%. In addition, under setting [1], the AC50 is 6.51 µM [rising, single point].
With `O=C(Cn1c(=O)oc2cc(S(=O)(=O)N3CCCC3)ccc21)N1CCN(c2ccccc2)CC1`, the cell number change was -5.74%. In addition, under setting [1], the AC50 was 0.13 µM [rising, full curve, poor fit].
As to `CCCn1c(SCC(=O)NCc2ccco2)nc2c1c(=O)n(C)c(=O)n2C`, the cell number change was 99.7%.
In the case of `O=C(CNC(=O)c1ccccc1Br)NCCSc1ccc(Br)cc1`, the cell number change is -25%. The AC50 under setting [2] is 6.51 µM [rising, single point].
Turning to `CCOC(=O)NNc1ccc2nonc2c1[N+](=O)[O-]`, the cell number change was -40.5%. Also, under setting [2], the AC50 is 29.1 µM [falling, single point]. Moreover, the AC50 under setting [1] was 29.1 µM [falling, single point].
On to `CCN1CCN(c2cc(C)c3cc(NC(=O)c4ccc(C)c(C)c4)ccc3n2)CC1`, for which the AC50 under setting [1] was 0.184 µM [rising, full curve, poor fit].
As to `COc1ccc(NC(=O)Cc2nnc(SCC(=O)c3ccc(F)cc3)n2C)cc1`, the cell number change stood at 5.22%. In addition, under setting [1], the AC50 is 29.1 µM [falling, single point].
Take `Cc1nn(C)c(C(=O)Nc2ccn(C34CC5CC(CC(C5)C3)C4)n2)c1[N+](=O)[O-]`: the cell number change was -19.7%. In addition, under setting [2], the AC50 is 0.0517 µM [falling, full curve, poor fit]. The concentration at half-maximal activity (AC50) under setting [1] is 2.06 µM [falling, full curve, poor fit].
On to `O=C(Nc1cc(S(=O)(=O)N2CCOCC2)ccc1N1CCOCC1)c1cccs1`, for which the cell number change is -43.7%. Moreover, under setting [2], the AC50 was 29.1 µM [falling, single point].
With `Cc1nc2ccccn2c1C(=O)NCc1ccc2c(c1)OCO2`, the cell number change is -2.54%. Besides, under setting [2], the half-maximal activity concentration (AC50) is 0.731 µM [rising, full curve, poor fit]. Further, under setting [1], the AC50 was 1.3 µM [rising, partial curve].
Consider `CCOC(=O)/C=C/C(=O)Nc1ccc(S(=O)(=O)N2CCCCCC2)cc1`, for which the AC50 under setting [2] was 0.13 µM [falling, full curve, poor fit].
Take `O=C(NCCc1ccccc1F)C1CCC(=O)N(Cc2ccccc2F)C1` (configuration not stated): the cell number change was -2.55%. In addition, under setting [1], the half-maximal activity concentration (AC50) was 29.1 µM [rising, single point].
Consider `Cc1ccc(N2C(=O)N(CC(=O)Nc3ccc(C)cc3C)C(=O)C2C)cc1` (configuration not stated), for which the cell number change turned out to be 13%. In addition, the AC50 under setting [2] was 0.092 µM [rising, full curve, poor fit].
For `COCCNC(=S)N1CCN(c2cccc(C(F)(F)F)c2)CC1`, the cell number change was determined as 22.1%. Further, the AC50 under setting [1] is 0.58 µM [falling, full curve].
In the case of `CC1(C)Cc2cccc(OCC(=O)Nc3cccnc3Cl)c2O1`, the cell number change is -4.07%. For the same compound, under setting [1], the AC50 is 0.0651 µM [rising, partial curve, poor fit].
Turning to `CCC(C)[C@H]1CNCCN1CCc1cc(C(F)(F)F)cc(C(F)(F)F)c1` (some centres not stated), the cell number change was -46.8%. In addition, the AC50 under setting [2] is 5.8 µM [falling, full curve]. Also, the AC50 under setting [1] is 0.731 µM [falling, partial curve, poor fit].
Turning to `C=CCNc1nc(S(=O)Cc2ccc(C)cc2)nc2c1CCCC2` (configuration not stated), the cell number change amounted to 37.9%. The AC50 under setting [1] was 0.259 µM [rising, partial curve, poor fit].
Turning to `CCCOC(=O)c1ccc(Oc2c(-c3ccc(O)cc3O)n[nH]c2C)cc1`, the cell number change is -34.2%. Besides, under setting [2], the AC50 is 29.1 µM [falling, single point]. Besides, the concentration at half-maximal activity (AC50) under setting [1] was 29.1 µM [falling, single point].
In the case of `O=C1C2CCCN2C(c2cccc(Br)c2)N1c1ccc(F)cc1` (configuration not stated), the cell number change is -16.4%.
As for `COC1CCCCC1NS(=O)(=O)c1ccccc1` (configuration not stated), the cell number change is -106%. The AC50 under setting [2] was 29.1 µM [falling, partial curve]. Also, under setting [1], the AC50 is 29.1 µM [falling, partial curve].
For the compound `COC(=O)CSc1nc(N2CCOCC2)c2c(c1C#N)CCCC2`, the cell number change was found to be 17%. Moreover, under setting [1], the AC50 was 5.17 µM [rising, single point].
Consider `CCc1cc(/C(Cc2csc(C)n2)=N/O)c(O)cc1O`, for which the cell number change was -19.2%.
For `COC(=O)/C(=C/c1ccccc1)NC(=O)c1ccco1`, the cell number change came out at 16.8%. Besides, under setting [1], the AC50 was 1.3 µM [falling, full curve, poor fit].
With `CSCC(C)N1CCC(Oc2cccc(C(=O)NCc3ccccn3)c2)CC1` (configuration not stated), under setting [2], the AC50 was 2.31 µM [falling, single point].
In the case of `O=C(COC(=O)c1cccc(F)c1)NC(=O)NC1CCCC1`, the cell number change is -34.3%. For the same compound, under setting [2], the half-maximal activity concentration (AC50) was 18.4 µM [falling, partial curve].
In the case of `COc1ccc(-n2c(C)cc(-c3csc(NC(=O)c4ccc(S(=O)(=O)N(C)C)cc4)n3)c2C)cc1`, the cell number change was -60.9%. Further, the AC50 under setting [2] is 1.3 µM [falling, full curve].
In the case of `O=C(O)CNC(=O)CCn1nnc2ccccc2c1=O`, the cell number change was -36.2%.
Take `COc1ccc2nnc(-c3ccc(C(F)(F)F)cc3)n2n1`: the cell number change was found to be 16%. The AC50 under setting [1] is 0.164 µM [rising, full curve].
For `CN(Cc1ccccc1)C(=O)c1[nH]cnc1C(=O)Nc1cccc(Cl)c1`, the cell number change was -57.2%. Also, under setting [2], the AC50 was 7.31 µM [falling, single point]. The AC50 under setting [1] is 1.16 µM [rising, partial curve].
Turning to `O=C(COc1ccccc1)NCCc1cn2ccsc2n1`, the cell number change came to 15.9%. Under setting [1], the AC50 was 2.59 µM [rising, partial curve].
As for `COCC1CCN(C(=O)c2cc(COc3ccc4ncccc4c3)on2)CC1`, the cell number change is -55.1%. For the same compound, the AC50 under setting [2] is 11.6 µM [falling, partial curve]. Also, the AC50 under setting [1] was 11.6 µM [falling, partial curve].
On to `O=C(CCSc1ccc(Cl)cc1)NC12CC3CC(CC(C3)C1)C2`, for which the cell number change was -27%. For the same compound, the AC50 under setting [1] was 18.4 µM [falling, partial curve].
Consider `Cc1nc(NCCc2ccc(O)cc2)c2nnn(Cc3ccccc3)c2n1`, for which the cell number change was found to be 9.12%. In addition, the AC50 under setting [2] was 0.184 µM [rising, full curve, poor fit]. Also, under setting [1], the AC50 was 29.1 µM [falling, single point].
`Cc1noc(NS(=O)(=O)c2ccc(NC(=O)C(C)C)cc2)c1C`: the cell number change was -15.9%. The AC50 under setting [1] was 0.0517 µM [falling, full curve, poor fit].
With `O=C(OCc1nc2ccccc2s1)C1CCN(S(=O)(=O)c2cccs2)CC1`, the cell number change was -8.55%.
As for `O=C(NCC(c1ccco1)N1CCCC1)c1ccc(Cl)cc1` (configuration not stated), the cell number change was -66.5%. Moreover, under setting [2], the concentration at half-maximal activity (AC50) was 1.84 µM [falling, full curve]. For the same compound, the AC50 under setting [1] is 18.4 µM [falling, partial curve].
As for `CCOC(=O)C1CCCN(C(=O)C2c3ccccc3Oc3ccccc32)C1` (configuration not stated), the cell number change is 39.9%. Further, under setting [2], the AC50 was 9.2 µM [rising, partial curve]. Also, the AC50 under setting [1] is 9.2 µM [rising, partial curve].
As to `CCOc1ccc(CCNC(=O)Cn2c(-c3nonc3N)nc3ccccc32)cc1OCC`, the cell number change is -39.8%. Further, the AC50 under setting [2] was 20.6 µM [falling, partial curve]. Moreover, the AC50 under setting [1] is 29.1 µM [falling, single point].
For the compound `CN1CCN(C(=O)/C(=C\c2cccs2)NC(=O)c2ccco2)CC1`, the cell number change was -65%. In addition, the AC50 under setting [2] was 29.1 µM [falling, single point].
Take `Cc1cccc(C(C(=O)NC2CCCCC2)N(C(=O)c2csnn2)C2CC2)c1` (configuration not stated): the cell number change is 10.7%. Besides, the AC50 under setting [1] was 0.58 µM [rising, single point].
For the compound `CC(C)c1ccc(S(=O)(=O)/N=C2/C=C(Sc3ncn[nH]3)C(=O)c3ccccc32)cc1`, the cell number change was -10.3%. The half-maximal activity concentration (AC50) under setting [2] is 0.651 µM [falling, partial curve, poor fit]. For the same compound, the AC50 under setting [1] was 4.61 µM [falling, partial curve, poor fit].
For `Cc1ccc(C)c(Nc2c([N+](=O)[O-])ccc3nonc23)c1`, the cell number change is -18.1%. Also, the AC50 under setting [1] was 10.3 µM [rising, partial curve].
For the compound `Cn1c(SCC(=O)N2CCc3ccccc3C2)nnc1-c1cccs1`, the cell number change worked out at 1.47%. Besides, the AC50 under setting [1] was 29.1 µM [falling, single point].
Turning to `COc1cccc(C2=CC(=O)CC(C)(C)C2)c1`, the cell number change was -20.3%. Under setting [2], the AC50 is 1.46 µM [falling, partial curve]. The AC50 under setting [1] was 1.64 µM [falling, partial curve].
For `O=C(NCc1cccs1)C1CCCN1C(=O)Nc1ccccc1[N+](=O)[O-]` (configuration not stated), the cell number change was -2.17%. For the same compound, the AC50 under setting [1] was 29.1 µM [rising, single point].
Regarding `CSCCC(NS(=O)(=O)c1ccc(Cl)cc1)C(=O)OCc1c(Cl)cccc1Cl` (configuration not stated), the cell number change was -66.7%. In addition, the AC50 under setting [2] was 1.64 µM [falling, partial curve].
